Test results as given in patent US20250064941A1, “SIGLEC LIGANDS, CONJUGATES, AND METHODS OF USE THEREOF” (Osprey Biopharmaceuticals, Inc., priority 2023, published 2025).
pKd: −log10 of the molar value. The structures given here were assigned with low confidence; some may be wrong.

Sequences of proteins named here, by UniProt entry; tags and fusion partners are left off. Residues count along the entry.
UniProt P35329, 22-708 limits assumed: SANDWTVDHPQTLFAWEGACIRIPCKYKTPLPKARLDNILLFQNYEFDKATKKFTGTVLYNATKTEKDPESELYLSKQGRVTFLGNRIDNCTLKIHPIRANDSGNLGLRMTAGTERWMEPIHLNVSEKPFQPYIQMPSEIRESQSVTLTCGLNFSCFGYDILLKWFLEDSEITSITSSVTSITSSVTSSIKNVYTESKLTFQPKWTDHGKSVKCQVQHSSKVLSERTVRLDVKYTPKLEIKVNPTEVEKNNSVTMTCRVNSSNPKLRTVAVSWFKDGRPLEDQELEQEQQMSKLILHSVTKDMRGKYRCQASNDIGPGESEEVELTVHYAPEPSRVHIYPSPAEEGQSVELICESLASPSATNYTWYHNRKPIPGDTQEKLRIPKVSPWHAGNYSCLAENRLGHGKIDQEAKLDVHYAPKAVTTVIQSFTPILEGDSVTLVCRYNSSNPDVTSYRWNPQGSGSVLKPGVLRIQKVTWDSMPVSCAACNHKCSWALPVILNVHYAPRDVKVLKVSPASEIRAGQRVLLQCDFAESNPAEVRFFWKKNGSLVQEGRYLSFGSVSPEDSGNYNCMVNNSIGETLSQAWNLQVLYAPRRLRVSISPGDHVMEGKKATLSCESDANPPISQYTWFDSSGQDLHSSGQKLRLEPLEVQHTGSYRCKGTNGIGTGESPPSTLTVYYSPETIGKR
UniProt P20273, 20-847 limits assumed: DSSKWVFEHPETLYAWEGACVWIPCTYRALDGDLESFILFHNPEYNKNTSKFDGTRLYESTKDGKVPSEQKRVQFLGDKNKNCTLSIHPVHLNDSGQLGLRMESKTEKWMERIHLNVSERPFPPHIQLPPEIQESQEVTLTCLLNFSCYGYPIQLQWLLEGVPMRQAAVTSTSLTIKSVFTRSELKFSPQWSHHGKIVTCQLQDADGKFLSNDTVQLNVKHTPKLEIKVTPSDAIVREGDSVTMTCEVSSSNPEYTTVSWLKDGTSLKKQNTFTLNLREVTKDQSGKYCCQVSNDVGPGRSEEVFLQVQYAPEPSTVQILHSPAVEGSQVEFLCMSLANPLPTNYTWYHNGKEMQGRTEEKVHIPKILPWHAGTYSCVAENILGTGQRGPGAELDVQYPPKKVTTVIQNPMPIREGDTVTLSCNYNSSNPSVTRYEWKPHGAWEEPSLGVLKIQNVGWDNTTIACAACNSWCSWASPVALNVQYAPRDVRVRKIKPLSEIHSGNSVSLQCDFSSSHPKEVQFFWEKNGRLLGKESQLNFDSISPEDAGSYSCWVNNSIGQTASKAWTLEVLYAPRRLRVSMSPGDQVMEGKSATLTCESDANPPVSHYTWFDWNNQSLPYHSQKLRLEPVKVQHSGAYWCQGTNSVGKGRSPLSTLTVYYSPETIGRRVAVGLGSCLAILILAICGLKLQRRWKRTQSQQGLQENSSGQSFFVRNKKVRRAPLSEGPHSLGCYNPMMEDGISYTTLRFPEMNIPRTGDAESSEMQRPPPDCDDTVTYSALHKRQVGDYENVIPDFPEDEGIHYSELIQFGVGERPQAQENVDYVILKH
UniProt A0A2K5WCZ6, 1-608 limits assumed: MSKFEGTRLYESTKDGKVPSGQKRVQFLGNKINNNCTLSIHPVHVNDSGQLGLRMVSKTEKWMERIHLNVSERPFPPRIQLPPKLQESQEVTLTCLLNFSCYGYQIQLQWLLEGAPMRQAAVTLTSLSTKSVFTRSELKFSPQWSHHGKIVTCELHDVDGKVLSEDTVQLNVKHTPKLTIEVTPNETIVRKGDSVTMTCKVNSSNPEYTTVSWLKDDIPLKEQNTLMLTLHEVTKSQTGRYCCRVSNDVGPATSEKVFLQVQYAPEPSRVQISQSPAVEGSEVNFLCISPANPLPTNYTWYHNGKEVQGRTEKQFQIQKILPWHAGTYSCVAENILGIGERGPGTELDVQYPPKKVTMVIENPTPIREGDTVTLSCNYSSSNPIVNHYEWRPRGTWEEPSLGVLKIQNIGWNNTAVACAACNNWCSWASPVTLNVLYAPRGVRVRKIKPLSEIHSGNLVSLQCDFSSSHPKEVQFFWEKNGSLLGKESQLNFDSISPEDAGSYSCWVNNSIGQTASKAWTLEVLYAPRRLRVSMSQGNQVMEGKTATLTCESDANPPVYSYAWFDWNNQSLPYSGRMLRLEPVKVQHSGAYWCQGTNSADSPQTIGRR

What was measured:
[1] = molecular target: mouse Siglec-2-Fc-Avi (CD22) (Mus musculus, UniProt P35329); test: SPR binding affinity to mouse CD22; conditions: read-out: Affinity mouse CD22, steady-state analysis
[2] = molecular target: human Siglec-2/CD22 protein (Homo sapiens, UniProt P20273); test: SPR binding affinity to human CD22; conditions: read-out: Affinity human CD22, steady-state analysis
[3] = molecular target: cynomolgus Siglec-2/CD22 (Macaca fascicularis, UniProt A0A2K5WCZ6); conditions: read-out: Affinity cyno CD22; SPR, steady-state analysis

Compound: C#CCOCCOCCO[C@]1(C(=O)O)C[C@H](O)[C@@H](NC(=O)CO)[C@H]([C@H](O)[C@H](O)CNC(=O)c2ccc(Oc3cccc(O)c3)cc2)O1
- pKd [1]: 5.00 to 6.00
- pKd [2]: < 5.00
- pKd [3]: < 5.00
